From article PMC5003816
No constants are given. Whether binding was seen depends on the method and setting. Binding seen in cells or lysates may run through a third protein. Some binding calls cover weakened binding; strength is not graded here.

By UniProt entry, the sequences of proteins in these tests, tags left out.
UniProt P11142: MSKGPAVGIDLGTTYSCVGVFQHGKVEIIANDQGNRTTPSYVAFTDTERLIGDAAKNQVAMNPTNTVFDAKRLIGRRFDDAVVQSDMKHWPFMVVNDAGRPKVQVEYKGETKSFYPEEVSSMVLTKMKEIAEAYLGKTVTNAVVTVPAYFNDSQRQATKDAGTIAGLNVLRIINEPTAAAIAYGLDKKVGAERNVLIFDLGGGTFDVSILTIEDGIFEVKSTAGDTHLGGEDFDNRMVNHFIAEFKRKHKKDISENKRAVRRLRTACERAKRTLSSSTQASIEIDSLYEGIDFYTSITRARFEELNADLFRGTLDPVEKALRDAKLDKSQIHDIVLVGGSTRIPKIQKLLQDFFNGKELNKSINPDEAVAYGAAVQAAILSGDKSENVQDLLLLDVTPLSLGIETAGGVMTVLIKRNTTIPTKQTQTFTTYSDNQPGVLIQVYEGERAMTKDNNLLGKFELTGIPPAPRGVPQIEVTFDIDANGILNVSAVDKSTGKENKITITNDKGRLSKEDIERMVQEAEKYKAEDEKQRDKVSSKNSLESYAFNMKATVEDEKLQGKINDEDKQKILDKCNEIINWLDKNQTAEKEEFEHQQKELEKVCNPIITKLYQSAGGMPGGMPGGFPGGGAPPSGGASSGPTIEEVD
UniProt Q9UHD9: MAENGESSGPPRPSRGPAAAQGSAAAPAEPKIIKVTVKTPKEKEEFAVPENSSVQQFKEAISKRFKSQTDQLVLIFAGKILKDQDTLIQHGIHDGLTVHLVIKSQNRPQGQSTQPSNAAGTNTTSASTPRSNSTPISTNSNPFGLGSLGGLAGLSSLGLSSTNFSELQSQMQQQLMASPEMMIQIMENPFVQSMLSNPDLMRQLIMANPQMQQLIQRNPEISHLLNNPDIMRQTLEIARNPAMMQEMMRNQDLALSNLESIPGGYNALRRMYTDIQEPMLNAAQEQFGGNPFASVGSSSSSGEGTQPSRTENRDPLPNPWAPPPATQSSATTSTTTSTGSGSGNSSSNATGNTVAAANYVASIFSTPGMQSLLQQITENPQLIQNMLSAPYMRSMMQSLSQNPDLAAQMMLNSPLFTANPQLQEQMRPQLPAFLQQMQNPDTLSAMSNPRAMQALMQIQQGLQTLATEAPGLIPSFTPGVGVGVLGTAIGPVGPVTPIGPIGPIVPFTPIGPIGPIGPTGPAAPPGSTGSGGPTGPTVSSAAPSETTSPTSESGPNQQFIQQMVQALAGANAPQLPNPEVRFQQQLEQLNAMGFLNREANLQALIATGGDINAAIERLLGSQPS

Molecular target: HSPA8-SV5, full-length (UniProt P11142)
Test: co-IP; IP of HSPA8-SV5 mutants expressed in HEK293 cells, endogenous UBQLN2 detected; heat shock as indicated

- binding: binds
Substance: UBQLN2 (human, endogenous in HEK293) (from UniProt Q9UHD9 1-624)
